Test results: publication doi:10.1101/2023.06.21.545551

Key:
Test in all cases: SPR
[1] = test system: MYC(352-437) + MAX(2-160) co-expressed
[2] = test system: MbIIIb-MYC(352-437) + MAX(22-102); details: less pronounced effect than Mb0
[3] = test system: MbIIIa-MYC(352-437) + MAX(22-102); details: less pronounced effect than Mb0
[4] = test system: MYC(151-439) + MAX(2-160) of commercial complex
[5] = test system: MYC(2-439) full-length + MAX(2-160); details: range over canonical and mutant E-Boxes

Sequence	binding result ([1]; Kd only in figure)	binding result [2]	binding result [3]	binding result [4]	binding result [5]	binding result ([1]; weakly bound)
CCGGTAACGTTGCCTA (double strand) [Mutant E-Box 2 (non E-Box)]	binds more weakly	binds more weakly	binds more weakly	binds more weakly	binds more weakly	–
CCGGTCATATGGCCTA (double strand) [Mutant E-Box 1 (low-affinity E-Box)]	binds more weakly	–	–	binds more weakly	binds more weakly	–
CCGGTCACGTGGCCTA (double strand) [E-Box (SPR)]	–	binds more weakly	binds more weakly	–	–	–
CCGGTTTAGCAGCCTA (double strand) [Negative control]	–	–	–	–	–	binds more weakly

Weaker means in comparison with the reference protein, sequence or condition of that experiment. For some assays here: Construct, isoform or probe ends are uncertain for at least one entry. For some assays here: At least one verdict rests on a figure or table, not on a statement of the authors.
